This is an account of results in the supplement of paper PMC8326762, “A Small Molecule Inhibitor of Pex3–Pex19 Interaction Disrupts Glycosome Biogenesis and Causes Lethality in Trypanosoma brucei” (Frontiers in Cell and Developmental Biology, 2021).

Counter-ions that a name gives are not always drawn. This is one part of the list. Single values of this set are uncertain.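 Yeast growth was read as optical density at 600 nm. The two-hybrid strains grew without histidine, so growth needed the Pex3–Pex19 binding; a compound counted as trypanosome-selective if it cut growth of the trypanosome-pair strain by more than 65% and the human-pair strain by less than 65%.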

For this assay, the system named is Saccharomyces cerevisiae HF7c pdr5Δ. The experiment in a line: general growth inhibition of yeast HF7c pdr5Δ in -Leu -Trp medium, relative to DMSO; higher = stronger general growth inhibition. The settings on record: 100 µM; 24 h.
Regarding `Cc1cc2c(cc1Cl)N(C(=O)Nc1ccc(Oc3cccnc3C)nc1)CC2`, the general growth inhibition worked out at 49.4%.

As for `O=C1NC(=O)c2cc(Nc3ccccc3)c(Nc3ccccc3)cc21`, the general growth inhibition is -12.1%.

`CN(C)CCC=C1c2ccccc2CCc2ccccc21` [Amitriptyline hydrochloride]: the general growth inhibition was found to be 37.1%.

As to `CCN(CC)CCCN(c1ccccc1)C1Cc2ccccc2C1` [Aprindine hydrochloride], the general growth inhibition is 51.9%.

Regarding `CC#C[C@]1(O)CC[C@H]2[C@@H]3CCC4=CC(=O)CCC4=C3[C@@H](c3ccc(N(C)C)cc3)C[C@@]21C` [Mifepristone], the general growth inhibition turned out to be 46.9%.

As for `C[C@H](O)C(=O)C1=Nc2c(nc(N)[nH]c2=O)NC1` [Sepiapterin], the general growth inhibition worked out at 44.1%.

For `O=C1NCC2(CCN(CCc3ccccc3)CC2)O1` [Fenspiride hydrochloride], the general growth inhibition stood at 30.7%.

`O=C(Nc1cccnc1)N1CCC(Cc2cccc(Oc3ccc(C(F)(F)F)cn3)c2)CC1` [PF 3845 hydrate]: the general growth inhibition came to 73%.

Consider `OCCN1CCN(CCCN2c3ccccc3C=Cc3ccccc32)CC1` [Opipramol dihydrochloride], for which the general growth inhibition was 52.1%.

In the case of `CCCCCCN(CCCCCC)C(=O)Cc1c(-c2ccc(F)cc2)[nH]c2ccccc12` [N,N-Dihexyl-2-(4-fluorophenyl)indole-3-acetamide], the general growth inhibition came out at 31.2%.

As to `O=c1[nH]c2ccccc2c2ccccc12` [6(5H)-Phenanthridinone], the general growth inhibition is 67.5%.

Take `C[C@H](N[C@@H](CCc1ccccc1)C(=O)O)C(=O)N1CCC[C@H]1C(=O)O` [Enalaprilat dihydrate]: the general growth inhibition was found to be 44.6%.

As to `C#CCN(C)Cc1ccccc1` [Pargyline hydrochloride], the general growth inhibition amounted to 49.9%.

Turning to `CN(C)c1ccc(O)c2c1C[C@H]1C[C@H]3[C@H](N(C)C)C(O)=C(C(N)=O)C(=O)[C@@]3(O)C(O)=C1C2=O` [Minocycline hydrochloride], the general growth inhibition came to 29%.

With `N[C@H](C(=O)O)c1cc(O)cc(O)c1` [(S)-3,5-Dihydroxyphenylglycine], the general growth inhibition stood at 12.5%.

Consider `C[N+](C)(C)CCCCCC[N+](C)(C)C` [Hexamethonium bromide], for which the general growth inhibition was 32.6%.

For `Nc1cc(Cl)c(NC2=NCCN2)c(Cl)c1` [p-Aminoclonidine hydrochloride], the general growth inhibition is 45.7%.

In the case of `N#CC(C#N)=C(N)/C(C#N)=C/c1ccc(O)cc1` [Tyrphostin AG 112], the general growth inhibition is 58.7%.

With `CC[C@]1(O)C[C@@H]2CN(CCc3c([nH]c4ccccc34)[C@@](C(=O)OC)(c3cc4c(cc3OC)N(C)[C@H]3[C@@](O)(C(=O)OC)[C@H](OC(C)=O)[C@]5(CC)C=CCN6CC[C@]43[C@@H]65)C2)C1` [Vinblastine sulfate salt], the general growth inhibition worked out at 48.7%.

As for `CN(C)C[C@H](O)Cn1c2ccc(Br)cc2c2cc(Br)ccc21` (racemic) [Wiskostatin], the general growth inhibition turned out to be 87.2%.

In the case of `CCC1(c2ccccc2)C(=O)NCNC1=O` [Primidone], the general growth inhibition is 45.9%.

For `NC(=O)c1ncn([C@@H]2O[C@H](CO)[C@@H](O)[C@H]2O)n1` [Ribavirin], the general growth inhibition came out at 51%.

For the compound `CN1CCc2cccc3c2[C@H]1Cc1ccc(O)c(O)c1-3` [Apomorphine hydrochloride hemihydrate], the general growth inhibition was determined as 29%.

For the compound `NC1CONC1=O` (racemic) [DL-Cycloserine], the general growth inhibition is 49.3%.

In the case of `Nc1nc(N)c2nc(-c3ccccc3)c(N)nc2n1` [Triamterene], the general growth inhibition came out at 4.09%.

As to `C[N+](C)(C)CCO.[Br-]` [Choline bromide], the general growth inhibition was determined as 39.3%.

Consider `CC1(C2CCCC2)Cc2cc(OCC(=O)O)c(Cl)c(Cl)c2C1=O` (centres undefined), for which the general growth inhibition stood at 41.7%.

`CCCCCCCCCCCCCCCCCCOCC(COP(=O)([O-])OCC[N+](C)(C)C)OC` (centres undefined): the general growth inhibition worked out at 89.4%.

For `Cc1cccc(-c2[nH]c(C(C)(C)C)nc2-c2ccc3nccnc3c2)n1`, the general growth inhibition came out at 22.6%.

On to `CNCCCC12CCC(c3ccccc31)c1ccccc12` [Maprotiline hydrochloride], for which the general growth inhibition is 31.2%.

Turning to `S=C(S)N1CCCC1` [Ammonium pyrrolidinedithiocarbamate], the general growth inhibition worked out at 90.3%.

For `COc1ccc(/C=C/c2nc(NCCCN(C)C)c3ccccc3n2)cc1`, the general growth inhibition was determined as 8.66%.

`NC[C@@H]1O[C@H](O[C@H]2[C@@H](O)[C@H](O[C@@H]3[C@@H](O)[C@H](N)C[C@H](N)[C@H]3O[C@H]3O[C@H](CO)[C@@H](O)[C@H](O)[C@H]3N)O[C@@H]2CO)[C@H](N)[C@@H](O)[C@@H]1O` [Paromomycin sulfate]: the general growth inhibition came out at 37.8%.

`CC1(C)CCC=[N+]1[O-]` [5,5-Dimethyl-1-pyrroline-N-oxide]: the general growth inhibition amounted to 34.3%.

Turning to `C[C@]12CCC(=O)C=C1CC[C@@H]1[C@@H]2C(=O)C[C@@]2(C)[C@H]1CC[C@]2(O)C(=O)CO` [Cortisone], the general growth inhibition was determined as 8.71%.

For `CNC(=C[N+](=O)[O-])NCCSCc1ccc(CN(C)C)o1` [Ranitidine hydrochloride], the general growth inhibition was 51.9%.

For `N[C@@H](Cc1c[nH]c2ccc(O)cc12)C(=O)O` [5-Hydroxy-L-tryptophan], the general growth inhibition turned out to be 38.7%.

Consider `CCCCS(=N)(=O)CCC(N)C(=O)O` (racemic) [DL-Buthionine-[S,R]-sulfoximine], for which the general growth inhibition worked out at 10.6%.

Regarding `COCCc1ccc(OCC(O)CNC(C)C)cc1` (racemic) [(±)-Metoprolol (+)-tartrate], the general growth inhibition is 20.3%.
